Drawing on article PMC2956685, “The 14-3-3ζ Protein Binds to the Cell Adhesion Molecule L1, Promotes L1 Phosphorylation by CKII and Influences L1-Dependent Neurite Outgrowth” (PLoS ONE, 2010), this text covers binding for two molecules.

Protein sequences, listed by entry. Tags and fused reporters are not part of them. Lines headed by an entry give the natural chain unless they say otherwise; changes in a name come on top.
UniProt P11627: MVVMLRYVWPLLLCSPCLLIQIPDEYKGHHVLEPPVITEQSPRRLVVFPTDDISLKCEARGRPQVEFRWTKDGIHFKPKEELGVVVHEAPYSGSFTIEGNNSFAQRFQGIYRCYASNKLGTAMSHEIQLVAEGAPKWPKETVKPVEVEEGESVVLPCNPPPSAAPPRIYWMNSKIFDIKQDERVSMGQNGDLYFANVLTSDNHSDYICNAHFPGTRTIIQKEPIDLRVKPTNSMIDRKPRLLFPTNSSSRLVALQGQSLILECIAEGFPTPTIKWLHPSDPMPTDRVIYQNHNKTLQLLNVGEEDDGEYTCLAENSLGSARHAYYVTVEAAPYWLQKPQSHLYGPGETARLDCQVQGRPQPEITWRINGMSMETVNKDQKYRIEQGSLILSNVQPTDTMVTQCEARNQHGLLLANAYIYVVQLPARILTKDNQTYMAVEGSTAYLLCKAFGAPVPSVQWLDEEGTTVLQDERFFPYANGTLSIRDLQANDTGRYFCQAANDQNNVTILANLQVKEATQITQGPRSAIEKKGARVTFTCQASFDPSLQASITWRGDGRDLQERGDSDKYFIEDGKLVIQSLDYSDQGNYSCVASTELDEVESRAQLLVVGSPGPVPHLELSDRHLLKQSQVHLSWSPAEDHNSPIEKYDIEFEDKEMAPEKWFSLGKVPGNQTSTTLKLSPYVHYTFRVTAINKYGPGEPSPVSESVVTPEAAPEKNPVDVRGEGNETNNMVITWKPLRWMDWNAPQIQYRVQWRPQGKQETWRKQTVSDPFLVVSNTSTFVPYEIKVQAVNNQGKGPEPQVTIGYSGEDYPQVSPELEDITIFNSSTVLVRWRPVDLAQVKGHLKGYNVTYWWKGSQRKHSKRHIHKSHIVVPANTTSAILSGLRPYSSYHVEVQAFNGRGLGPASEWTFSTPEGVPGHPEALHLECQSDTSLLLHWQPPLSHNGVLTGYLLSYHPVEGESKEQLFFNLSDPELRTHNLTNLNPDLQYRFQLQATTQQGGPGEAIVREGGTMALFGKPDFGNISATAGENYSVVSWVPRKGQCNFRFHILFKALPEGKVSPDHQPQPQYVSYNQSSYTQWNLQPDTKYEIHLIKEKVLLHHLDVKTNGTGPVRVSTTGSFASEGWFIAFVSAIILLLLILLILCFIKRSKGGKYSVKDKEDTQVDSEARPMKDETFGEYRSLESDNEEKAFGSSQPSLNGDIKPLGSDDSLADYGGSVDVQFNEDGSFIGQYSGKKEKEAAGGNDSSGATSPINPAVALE

Assay [1] deals with GST-14-3-3ζ (UniProt P63104). Nature of the assay: pull-down; 20 µg GST-14-3-3ζ (or 10 µg GST) on Glutathione Sepharose 4B beads; incubated with the whole reaction of His-L1ICD proteins (15 µg) treated with or without CKII; 20 mM Tris-HCl pH 7.4, 300 mM NaCl, Nonidet P-40; blot with anti-L1 74-5H7; both purified.
In assay [2] the target is His-L1ICD, non-phosphorylated (intracellular domain of L1) (mouse) (UniProt P11627). The assay can be described thus: ELISA; intracellular domains of L1 and NCAM180 (5 µg/ml) immobilised on microtiter wells in TBS; increasing concentrations of GST-14-3-3ζ, 1 h at RT, in 1% BSA, 1 mM CaCl2, 1 mM MgCl2 in TBS-Tween; detection with anti-GST; absorbance of GST-only wells subtracted; both purified.

No constants are given. Whether binding was seen depends on the method and setting. Binding calls can cover weak binding; strength is not graded here.

Consider “His-L1ICD, non-phosphorylated (intracellular domain of L1) (from UniProt P11627) (domain or fragment)”, for which the binding result in assay [1] is “binds”.

B1: GST-14-3-3ζ (natural protein, UniProt P63104 1-245, looked up)
chain: MDKNELVQKAKLAEQAERYDDMAACMKSVTEQGAELSNEERNLLSVAYKNVVGARRSSWRVVSSIEQKTEGAEKKQQMAREYREKIETELRDICNDVLSLLEKFLIPNASQAESKVFYLKMKGDYYRYLAEVAAGDDKKGIVDQSQQAYQEAFEISKKEMQPTHPIRLGLALNFSVFYYEILNSPEKACSLAKTAFDEAIAELDTLSEESYKDSTLIMQLLRDNLTLWTSDTQGDEAEAGEGGEN
With B1, in assay [2], the binding entry is “binds”.
